Literature values in US4990617A, “N-oxide prodrug derivatives of 3-hydroxy morphinans and partial morphinans and derivatives” (E. I. Du Pont de Nemours and Company, priority 1989, dated 1991).

Settings: guinea pigs administered morphine sulfate; literature; cited from earlier work

## CN1CC[C@]23c4c5ccc(O)c4O[C@H]2[C@@H](O)C=C[C@H]3[C@H]1C5.O=S(=O)(O)O [morphine sulfate]
  N-oxide metabolite in urine: isolating morphine N-oxide from the urine of guinea pigs
